Entries after “also recorded” stand apart in the source; their conditions may differ. For some assays here: At least one compound was matched to its structure with a doubt left. Some of these results come from one statement about several compounds together.
How the values were obtained:
[1] = patients treated with BRAF inhibitors; cited from earlier work
[2] = system: skin wounds and their surroundings; assay: histological analysis (H&E) of healing wounds in mice; format: in vivo
From the text: FIG. 6 is a schematic representation of the pathological analysis of wound healing on days 1 (D1), 2 (D2) and 6 (D6) post-treatment. […] Wound-adjacent epidermis undergoes hyperplasia and proliferation and epidermal cells from this process migrate centrally to seal the incised epidermal deficiency. The space of the incision fills initially with fibrin, which is then colonized by fibroblasts, macrophages, polymorphonuclear cells and new capillaries. […] Each bar includes data from 4 samples.
The area of the wounds and their surroundings were analyzed histologically by H&E staining by two pathologists and the extent of epidermal hyperplasia on both sides of the healing wounds was measured on days 1, 2 and 6 post-treatment (FIGS. 6A and 6B).

SMILES	patients developing nonmelanoma skin cancers (cutaneous squamous-cell carcinomas and keratoacanthomas) [1] [%]	wound-adjacent (peri-lesional) epidermal hyperplasia, photomicrographs ([2]; day 2 post-incision)	dermal reparative / sub-epidermal fibrosis ([2]; day 6)	re-epithelialization (in words) ([2]; day 6)	healing process / signs of healing or repair (pathologists' assessment) ([2]; days 1 to 6)
CC(C)(C)c1nc(-c2cccc(NS(=O)(=O)c3c(F)cccc3F)c2F)c(-c2ccnc(N)n2)s1 [dabrafenib]	15 to 30	–	–	–	–
CC(=O)Nc1cccc(-n2c(=O)n(C3CC3)c(=O)c3c(Nc4ccc(I)cc4F)n(C)c(=O)c(C)c32)c1 [trametinib]	–	slight peri-lesional hyperplasia	no evidence of dermal reparative fibrosis	No re-epithelialization	No signs of healing or re-epithelialization; also recorded: no evidence of repair by day 6

Source: patent publication US20170100345A1, “WOUND HEALING USING BRAF INHIBITORS” (THE REGENTS OF THE UNIVERSITY OF CALIFORNIA, priority 2014, published 2017)
